The source of these data is PMC11754801, “The molecular basis of Human FN3K mediated phosphorylation of glycated substrates” (Nature Communications, 2025).

The target of test [1] is HsFN3K C24S (human) (UniProt Q9H479). The test can be described thus: non-reducing SDS-PAGE; 5 µg protein incubated 20 min without DTT in MicroKit SEC buffer at room temperature; sample buffer without reducing agent; both purified.
Test [2] has the same target. The test can be described thus: SEC; Micro Kit SEC, Superdex 200 increase 3.2/300; 20 µg (~28 µM) protein; HEPES 25 mM pH 7.5, NaCl 150 mM, non-reducing; 20 min incubation before injection; both purified. On the technique in general: SEC sorts molecules by how far they enter the pores of the column.

Results are given in words; binding and its absence hold for the method and conditions named.

B1: HsFN3K C24S (enzyme, UniProt Q9H479 1-309)
chain: MEQLLRAELRTATLRAFGGPGAGSISEGRAYDTDAGPVFVKVNRRTQARQMFEGEVASLEALRSTGLVRVPRPMKVIDLPGGGAAFVMEHLKMKSLSSQASKLGEQMADLHLYNQKLREKLKEEENTVGRRGEGAEPQYVDKFGFHTVTCCGFIPQVNEWQDDWPTFFARHRLQAQLDLIEKDYADREARELWSRLQVKIPDLFCGLEIVPALLHGDLWSGNVAEDDVGPIIYDPASFYGHSEFELAIALMFGGFPRSFFTAYHRKIPKAPGFDQRLLLYQLFNYLNHWNHFGREYRSPSLGTMRRLLK
Consider B1, for which the binding entry with HsFN3K C24S (human) [1] is “no binding (tested: 5 µg)”; with HsFN3K C24S (human) [2], “no binding (tested: 20 µg (~28 µM))”.
